Test results from paper PMC6336344.
No constants are given. Whether binding was seen depends on the method and setting. In cells and extracts the contact can be indirect. Some binding calls cover weakened binding; strength is not graded here. For part of these data: Sequences can lack the tags named with a protein.

Sequences of proteins named here, by UniProt entry; tags and fusion partners are left off.
UniProt Q9LR78: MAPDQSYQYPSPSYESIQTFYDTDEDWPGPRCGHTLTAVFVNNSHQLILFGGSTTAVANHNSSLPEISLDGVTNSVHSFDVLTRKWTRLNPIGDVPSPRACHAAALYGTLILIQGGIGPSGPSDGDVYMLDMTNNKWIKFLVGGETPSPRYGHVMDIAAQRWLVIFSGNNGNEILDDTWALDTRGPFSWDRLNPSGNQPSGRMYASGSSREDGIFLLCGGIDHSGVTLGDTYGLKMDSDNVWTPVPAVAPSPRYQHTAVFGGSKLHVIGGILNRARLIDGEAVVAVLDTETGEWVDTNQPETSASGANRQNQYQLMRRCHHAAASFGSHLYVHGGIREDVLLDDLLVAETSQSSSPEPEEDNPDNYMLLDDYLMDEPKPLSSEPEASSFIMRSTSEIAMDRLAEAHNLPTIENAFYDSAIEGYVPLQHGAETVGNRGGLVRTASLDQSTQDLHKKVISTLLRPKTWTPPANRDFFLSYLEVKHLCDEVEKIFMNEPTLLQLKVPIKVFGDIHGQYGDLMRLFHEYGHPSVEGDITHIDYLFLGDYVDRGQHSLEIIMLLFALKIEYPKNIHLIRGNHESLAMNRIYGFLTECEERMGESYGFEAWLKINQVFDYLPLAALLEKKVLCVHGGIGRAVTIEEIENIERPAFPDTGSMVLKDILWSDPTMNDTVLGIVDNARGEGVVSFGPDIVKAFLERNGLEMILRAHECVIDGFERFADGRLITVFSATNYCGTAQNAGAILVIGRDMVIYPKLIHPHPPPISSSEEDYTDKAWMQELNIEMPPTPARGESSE

Assays:
[1] = molecular target: T1, GST-BIN2 (Arabidopsis thaliana) (UniProt Q39011); experiment: pull-down; GST fusion proteins (wheat germ TNT, purified) on glutathione sepharose 4B beads, incubated 2 hours with HA- or FLAG-tagged TNT proteins; PBS pH 7.4, 1 mM dithiothreitol, 0.1 to 1% igepal CA-630, 4 °C; 4 washes; blots with anti-GST, anti-HA, anti-FLAG; only the target purified
T1 sequence: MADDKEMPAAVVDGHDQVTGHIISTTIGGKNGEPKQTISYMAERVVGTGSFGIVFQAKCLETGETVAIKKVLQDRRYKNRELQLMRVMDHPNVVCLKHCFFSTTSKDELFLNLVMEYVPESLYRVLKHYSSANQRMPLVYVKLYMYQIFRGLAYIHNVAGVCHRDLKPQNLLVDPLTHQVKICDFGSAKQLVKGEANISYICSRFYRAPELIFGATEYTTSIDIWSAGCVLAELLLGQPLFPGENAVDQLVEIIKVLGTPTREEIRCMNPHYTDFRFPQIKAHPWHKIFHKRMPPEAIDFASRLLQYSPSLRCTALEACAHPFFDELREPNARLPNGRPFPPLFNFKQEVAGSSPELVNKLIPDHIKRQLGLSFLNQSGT

[2] = molecular target: GST-BRI1-KD (BRI1 kinase domain) (Arabidopsis thaliana) (UniProt O22476); experiment: as above
[3] = molecular target: GST-BSK3 (Arabidopsis thaliana) (UniProt Q8W4L3); experiment: as above
[4] = molecular target: GST-BSU1 (BRI1 SUPPRESSOR 1 phosphatase) (Arabidopsis thaliana) (UniProt Q9LR78); experiment: as above
[5] = molecular target: BSK3-HA (BRASSINOSTEROID-… KINASE 3, HA-tagged, expressed from BSK3pro:BSK3-HA in Arabidopsis) (Arabidopsis thaliana) (UniProt Q8W4L3); experiment: co-IP; transgenic Arabidopsis co-expressing BSK3-HA and a GFP/EYFP fusion; 300-870 μg microsomal proteins from 7 or 8-day-old light-grown seedlings; IP with anti-HA antibody and protein G agarose, blot with anti-GFP; also done after 1 μM BL for 30 minutes (BSK3-HA/BRI1-GFP reduced, the others not affected)
[6] = molecular target: BSK3-YFP^N (Arabidopsis thaliana) (UniProt Q8W4L3); experiment: split reporter; BiFC with halves of YFP (pSPYNE-35S, pSPYCE-35S), transient co-expression in Nicotiana benthamiana leaves, confocal microscopy of leaf epidermal cells

Substance | binding [5] | binding [6] | other results
BSK3-HA (in vitro translated) (from UniProt Q8W4L3 1-489) |  |  | binding [1]: binds; binding [2]: binds; binding [3]: binds; binding [4]: binds
BSK3-GFP (expressed from BSK3pro:BSK3-GFP in Arabidopsis) (from UniProt Q8W4L3 1-489) | binds |  | 
BSK1-FLAG (from UniProt Q944A7 1-512) |  |  | binding [3]: binds
BSK3-YFP^C (from UniProt Q8W4L3 1-489) |  | binds | 
BSK1-EYFP (BRASSINOSTEROID-… KINASE 1, EYFP fusion) (from UniProt Q944A7 1-512) | binds |  | 

Continued, in another order:

binding [5] | binding [6] | Substance | other results
 | binds | BSK1-YFP^C (from UniProt Q944A7 1-512) | 
 | binds | BSU1-YFP^C (from UniProt Q9LR78 1-793) (enzyme) | 
binds |  | BRI1-GFP (BRASSINOSTEROID … 1 receptor kinase, GFP fusion) (from UniProt O22476 24-1196) | 
 | binds | BRI1-YFP^C (from UniProt O22476 24-1196) (receptor) | 
